Laboratory results as given in PMC9249791, “Molecular dissection of the glutamine synthetase-GlnR nitrogen regulatory circuitry in Gram-positive bacteria” (Nature Communications, 2022).
These are yes or no findings as the source states them, for the method shown. Some results given as binding are weak or reduced against the parent protein; the word gives no strength.

Molecular target: T1, Bacillus subtilis GlnR, full length (B. subtilis), P37582
T1 chain: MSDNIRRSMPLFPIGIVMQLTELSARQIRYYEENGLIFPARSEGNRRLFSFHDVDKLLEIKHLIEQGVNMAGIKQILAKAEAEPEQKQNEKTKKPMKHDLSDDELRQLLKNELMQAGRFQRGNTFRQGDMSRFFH
Experiment: negative stain EM; Bs GS mixed 1:1 with FL GlnR; 25 mM Tris pH 7.5, 200 mM NaCl, 5% glycerol, 1 mM MgCl2, 5 mM glutamine; 2D class averages; both purified
Settings: remark: other sources report otherwise

B1: Bacillus subtilis glutamine synthetase, P12425 1-444 (enzyme)
chain: MAKYTREDIEKLVKEENVKYIRLQFTDILGTIKNVEIPVSQLGKALDNKVMFDGSSIEGFVRIEESDMYLYPDLNTFVIFPWTAEKGKVARFICDIYNPDGTPFEGDPRNNLKRILKEMEDLGFSDFNLGPEPEFFLFKLDEKGEPTLELNDKGGYFDLAPTDLGENCRRDIVLELEEMGFEIEASHHEVAPGQHEIDFKYAGAVRSCDDIQTFKLVVKTIARKHGLHATFMPKPLFGVNGSGMHCNLSLFKNGVNAFFDENADLQLSETAKHFIAGIVKHATSFTAVTNPTVNSYKRLVPGYEAPCYVAWSAQNRSPLIRIPASRGISTRVEVRSVDPAANPYLALSVLLAAGLDGIKNKLEAPAPIDRNIYVMSKEERMENGIVDLPATLAEALEEFKSNEVMVKALGEHLFEHFIEAKEIEWDMFRTQVHPWEREQYMSQY
binding: binds
